In all, about 53,000 sequences went through this assay and about 3,700 (7%) were called active.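 How the source made its calls: active means gene knockdowns whose robust z-score for IL-1 alpha signal is at least 2 or at most -2, so actives lie on both sides; inactive means the rest.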 The list shows a part of the results.

The experiment in a line: Components of the Cytosolic LPS Sensing Pathway: Gene Identification via Genome-wide siRNA Screen.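 Further: robust z of the log signal after scaling to non-targeting control siRNA wells of the plate.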 The conditions noted are these: RAW264.7 macrophages, IL-1a HTRF, actives lie on both sides, screened at 100 nM (by protocol), cells primed 5 h with Pam3CSK4 first. An outline of the steps: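 Three distinct siRNAs per gene were tested singly at 100 nM in RAW264.7 macrophages. Following Pam3CSK4 priming and 24 hour LipidA transfection, IL-1a secretion was read by HTRF.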
Background: TR-FRET usually uses a lanthanide donor and a delayed reading to cut background.
In the case of GCAAAUGAUUCUUGUCAAATT against Cog7, the z-score was inactive: 0.397.
To GACUGUAAUGAAGCAUUUATT against Rad21 belongs inactive: -1.68; to GCCAGUGGGAUGUCAAAAATT against Zc3h11a, inactive: -0.434.
With CCCAUUUGAGUGUACAUAATT against Fam107b the figure was inactive: 1.38; with GGCUUUGCUAUCAACUCGCTT against Pla2g4f, inactive: -1.02.
Take CCAAAGUGGACAAAUUAGUTT against Pank2: the z-score is inactive: 0.461.
To CGCAUCAACACCUUCGUGATT against Kcnk3 belongs inactive: -1.21.
With AAUACCUAGACUGACAUGUTT against Trp53rkb the figure was inactive: -0.122; with CCGAAGCCUAAGGUCCAAATT against Rpl29, inactive: -0.0939; with GGAAGAUUCCAAAACUAGATT against Ttc26, inactive: -1.05.
To GGUUUCACUGACAAAACUATT against Zim1 belongs inactive: 0.235.
On to GCGAUCUAGUUUCAUUAAATT against Prpf19, for which the z-score was inactive: 0.24.
To GGAGGAAGAAACAGAACCATT against Ankrd33 belongs inactive: 0.17; to GCUCCUUAGAGAGAGUAUUTT against Sod3, inactive: -0.399; to CCCAACUAGUGUAGCUAUCTT against Usf1, inactive: -1.95.
To GGUCCUGUUAAACUGAAAGTT against Fkbp1a belongs inactive: -1.45; to GCAGACAAAGAUCGCCAAATT against H2-Q5, inactive: 0.795; to GGGACAACAAUGGUUUAGGTT against Tsga13, inactive: -1.8.
To GCAACUGUACACUAGAUACTT against Dcun1d1 belongs inactive: 0.00276.
For GGUCAAGUUUGACCUCAAGTT against Mybpc3, the z-score is inactive: -0.971.
To CCGGACUCAGUUAUGGAAGTT against Gpr135 belongs inactive: 0.883; to CCUAAAGUGAUUGCUGAUUTT against Olfr1202, inactive: 0.632; to GGAGAGUUAUUUGACCACCTT against Emd, inactive: 1.97.
To “GGGUUCAGACUGCUUCUUATT against 2900005J15Rik” belongs inactive: -0.845.
GGCACAAACUAGAUGCAGATT against Ccdc68: the z-score is inactive: -0.669.
With GGCCAAGGAAAUAUCAAUGTT against Alg14 the figure was active: 2.69; with GGACAUUAUCCUCAGGGUGTT against Ccm2, inactive: -1.61; with GGAUGAAAAACUUUGAAACTT against Hao1, inactive: -0.136.
With GGGAAUCUAAGCUGUAUUUTT against Lyzl1 the figure was inactive: -0.725.

The values are drawn from PubChem BioAssay AID1508600 (Functional Genomics Laboratory (NCATS/FGL), 2020).
